Results are given in words; binding and its absence hold for the method and conditions named. In cells and extracts the contact can be indirect. Some entries that bind do so weakly or less than the wild type.
Target: GLP‐1R of DiscoverX GLP‐1R‐β‐arrestin 2 cells (UniProt P43220)
Test: split reporter; DiscoverX (PathHunter) GLP‐1R‐β‐arrestin 2 cells; 30‐min stimulation with semaglutide, HISHS‐2001 or tirzepatide in serum‐free medium with 0.1% BSA; β‐arrestin detection reagents, luminescence; normalised to the maximal fitted semaglutide response

The chains behind the UniProt entries cited, without tags or fusion partners. Residues count along the entry.
UniProt P43220, residues 24-463: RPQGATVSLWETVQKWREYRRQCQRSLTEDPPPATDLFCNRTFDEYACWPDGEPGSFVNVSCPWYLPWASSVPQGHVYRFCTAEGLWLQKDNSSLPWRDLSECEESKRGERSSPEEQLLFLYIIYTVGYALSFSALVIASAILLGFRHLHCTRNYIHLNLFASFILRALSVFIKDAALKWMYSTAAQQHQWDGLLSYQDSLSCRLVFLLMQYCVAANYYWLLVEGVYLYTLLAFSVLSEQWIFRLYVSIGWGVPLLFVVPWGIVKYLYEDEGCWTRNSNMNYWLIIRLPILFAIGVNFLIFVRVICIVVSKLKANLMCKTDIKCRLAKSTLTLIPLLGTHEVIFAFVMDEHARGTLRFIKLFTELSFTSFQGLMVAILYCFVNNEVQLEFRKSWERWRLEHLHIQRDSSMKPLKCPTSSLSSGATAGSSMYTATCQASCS
UniProt P32121: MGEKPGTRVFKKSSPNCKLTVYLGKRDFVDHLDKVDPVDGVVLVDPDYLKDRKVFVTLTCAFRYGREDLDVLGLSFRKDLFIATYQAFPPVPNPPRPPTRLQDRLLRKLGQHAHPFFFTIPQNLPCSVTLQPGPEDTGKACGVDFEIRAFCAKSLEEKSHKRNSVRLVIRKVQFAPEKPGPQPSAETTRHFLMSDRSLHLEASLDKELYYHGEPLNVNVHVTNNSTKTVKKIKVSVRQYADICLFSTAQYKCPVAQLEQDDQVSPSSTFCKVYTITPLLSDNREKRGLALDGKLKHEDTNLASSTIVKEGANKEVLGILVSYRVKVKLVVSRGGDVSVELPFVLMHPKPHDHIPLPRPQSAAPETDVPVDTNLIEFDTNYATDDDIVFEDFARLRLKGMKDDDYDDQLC

binding: binds
Substance: β‐arrestin 2 of DiscoverX GLP‐1R‐β‐arrestin 2 cells (from UniProt P32121 1-409)

— PMC12409219, “Binding kinetics, bias, receptor internalization and effects on insulin secretion in vitro and in vivo of a novel GLP‐1R/GIPR dual agonist, HISHS‐2001” (Diabetes, Obesity & Metabolism, 2025)
